Several values for one entry are separate records, joined by “and”; a condition that tells them apart may be missing. Equal values may be shown once. The whole screen tested about 580,000 compounds, of which about 6,100 (1.1%) were called active. The shares of active, inactive and inconclusive entries below differ from those in the screen. The call rests on the fitted dose curve; in most records, active means well fitted inhibition curve with a large enough effect; inconclusive means small, poorly fitted or top-dose-only effect, or another doubt; inactive means no such curve, though single readings can be large or run the other way. Where the call is inconclusive, the potency comes from a doubtful curve fit.
The compounds below were run against Polyunsaturated fatty acid lipoxygenase ALOX12 (Homo sapiens) (UniProt P18054) (assay: Primary qHTS assay for inhibitors of human arachidonate 12S-lipoxygenase (ALOX12): Round 2). Details: purified 12hLO, xylenol orange hydroperoxide absorbance; activity change, negative = inhibition: at 108 µM (top of the series) unless noted.
Method in brief: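 Hydroperoxide product was detected by ferrous iron/xylenol orange as the 573 to 405 nm absorbance ratio. Arachidonic acid at 40 uM (final) was turned over for 30 min at room temperature by 150 nM human 12hLO, pH 7.0 Hepes buffer, after 15 min compound preincubation.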
On the % scale 0 is the no-effect control and ±100 the full control effect; potency means the concentration at half of the fitted maximal effect.

By UniProt entry, the sequences of proteins in these tests, tags left out. Where a name states a change or a piece, a line headed by the entry shows the natural chain unless it says otherwise.
UniProt P18054: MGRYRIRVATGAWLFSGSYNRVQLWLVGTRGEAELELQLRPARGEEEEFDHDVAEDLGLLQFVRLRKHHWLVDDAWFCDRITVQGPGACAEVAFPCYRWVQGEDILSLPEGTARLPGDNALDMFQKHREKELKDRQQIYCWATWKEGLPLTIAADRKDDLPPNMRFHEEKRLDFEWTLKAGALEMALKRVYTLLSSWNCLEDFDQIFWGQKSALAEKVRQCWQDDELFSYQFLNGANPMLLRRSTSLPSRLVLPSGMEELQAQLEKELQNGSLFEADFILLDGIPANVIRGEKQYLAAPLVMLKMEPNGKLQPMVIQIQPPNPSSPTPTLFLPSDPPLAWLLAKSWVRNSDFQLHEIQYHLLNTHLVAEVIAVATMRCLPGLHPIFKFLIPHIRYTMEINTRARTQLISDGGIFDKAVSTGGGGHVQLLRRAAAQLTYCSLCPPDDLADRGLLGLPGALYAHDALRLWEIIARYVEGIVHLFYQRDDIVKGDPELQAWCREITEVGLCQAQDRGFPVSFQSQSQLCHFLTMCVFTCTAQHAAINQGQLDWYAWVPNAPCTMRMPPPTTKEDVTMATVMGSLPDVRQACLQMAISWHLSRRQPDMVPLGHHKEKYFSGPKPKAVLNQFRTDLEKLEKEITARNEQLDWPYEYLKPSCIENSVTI

Row | Structure (SMILES) | Potency | activity change, negative = inhibition
1 | O=[N+]([O-])c1ccc(Sc2n[nH]c(-c3ccc(Cl)cc3Cl)n2)nc1 | inconclusive: 56.2 µM [inhibitor, partial curve, poor fit] | 
2 | CCc1nnc(NS(=O)(=O)c2ccc(N/C=C\C(=O)c3cccc(OC)c3)cc2)s1 | inconclusive: 50.1 µM [inhibitor, partial curve, poor fit] | 
3 | CN(C)Cc1ccccc1-c1cncnc1NCc1cccnc1 | inconclusive: 44.7 µM [inhibitor, partial curve, poor fit] | 
4 | CCCCN(Cc1ccccc1)c1ccc(NS(=O)(=O)c2cc(C)ccc2C)cc1C(=O)O | inconclusive: 2.51 µM [inhibitor, full curve, poor fit] | 
5 | O=C(Nc1ccc(Cl)cc1)C1Cc2c(-c3ccccc3Oc3ccccc3)ccnc2O1 (stereo not drawn) |  | inactive: -13.7%
6 | COC(=O)c1c(NC(=O)CN2CCN(c3ccccc3Cl)CC2)sc(C)c1C | inconclusive: 4.47 µM [inhibitor, full curve, poor fit] | 
7 | Cc1sc2cc(C(=O)NC(C)C)[nH]c2c1CN1CCCCC1 | inconclusive: 2.82 µM [inhibitor, full curve, poor fit] | 
8 | O=C(CN1CCOCC1)N1c2ccccc2Sc2ccc(Cl)cc21 | inconclusive: 44.7 µM [inhibitor, partial curve, poor fit] | 
9 | CCn1c2ccccc2c2cc(NC(=O)CSc3nnc(-c4cccc(F)c4)o3)ccc21 |  | inactive: 76.4%
10 | CCN(C(=O)c1ccc(S(=O)(=O)N2CCCC2)cc1)C1CCS(=O)(=O)C1 (stereo not drawn) | inconclusive: 89.1 µM [inhibitor, partial curve, poor fit] | 
11 | Cc1ccc(-c2nnc(C3CN(C(=O)c4cnc(C)cn4)CC34CCOCC4)o2)cc1 (stereo not drawn) |  | inactive: 22.3%
12 | COc1ccc(OC)c(CN2C(=O)CCC2(C)c2nnnn2Cc2ccccc2)c1 (stereo not drawn) | inconclusive: 28.2 µM [inhibitor, single point] | 
13 | O=C(NCc1ccc2c(c1)OCO2)c1ccc(COc2cc(Cl)ccc2Cl)o1 |  | inactive: -19.6%
14 | CN(C)c1ccc(-c2n(C)c3ccccc3[n+]2C)cc1 |  | inactive: -22.2%
15 | Cc1oc(-c2ccc(Cl)cc2)nc1Cn1nc(C)c2c(C)onc2c1=O | inconclusive: 20 µM [inhibitor, partial curve, poor fit] | 
16 | CC(=O)Nc1cccc(C(C)NC(=O)Nc2cc(Cl)ccc2Cl)c1 (stereo not drawn) |  | inactive: -28.5%
17 | O=C(c1ccc(Cl)cc1)N1CCC(N2Cc3cccn3C2=O)CC1 |  | inactive: 0.407% [at 6.33 µM]
18 | COc1cccc(CNC(=O)C(=O)NCC(c2ccco2)S(=O)(=O)c2cccs2)c1 (stereo not drawn) |  | inactive: -24.1%
19 | CN(Cc1ccco1)c1ccnc(-c2ccccc2C(F)(F)F)n1 | inconclusive: 50.1 µM [inhibitor, partial curve, poor fit] | 
20 | COc1cc(=O)n2c(c1C(=O)NCc1ccco1)CCN(Cc1cccc(Cl)c1)CC2 | inconclusive: 141 µM [inhibitor, single point] | 
21 | CCN(Cc1ccccc1)C(=O)CC1CCCN(c2cnn(C)c(=O)c2)C1 (stereo not drawn) | inconclusive: 70.8 µM [inhibitor, partial curve, poor fit] | 

Row | Structure (SMILES) | Potency | activity change, negative = inhibition
22 | CN(C)S(=O)(=O)c1ccc(C(=O)Nc2nnc(-c3cccs3)o2)cc1 |  | inactive: 1.53%
23 | O=C(Cn1ncc2c([nH]c3ccccc32)c1=O)N1CCN(c2ccccc2F)CC1 |  | inactive: -19.3%
24 | CN(Cc1ccc(Cl)c(Cl)c1)C(C(=O)NCc1ccccc1)c1ccco1 (stereo not drawn) |  | inactive: -12.9%
25 | O=S(=O)(NC(c1ccccc1)c1ccccc1)c1cccs1 | inconclusive: 44.7 µM [inhibitor, partial curve, poor fit] | 
26 | CCc1ccc2oc(C(=O)NCC(c3ccco3)N3CCOCC3)cc(=O)c2c1 (stereo not drawn) | inconclusive: 39.8 µM [inhibitor, partial curve] | 
27 | O=C(CC[C@H]1O[C@@H](n2cnc3c(NC(=O)c4ccccc4)ncnc32)[C@H](O)[C@@H]1O)N[C@@H](CO)Cc1c[nH]c2ccccc12 | inconclusive: 0.282 µM [inhibitor, full curve, poor fit] | 
28 | Cn1c(=O)c2c(ncn2CC(=O)N2CCN(S(=O)(=O)c3ccc(Cl)cc3)CC2)n(C)c1=O | inconclusive: 63.1 µM [inhibitor, partial curve, poor fit] | 
29 | O=c1c2nc(-c3ccc(O)c(F)c3)ccc2ncn1-c1ccccc1 | inconclusive: 39.8 µM [inhibitor, full curve, poor fit] | 
30 | COc1ccc(C(=O)CC(C(=O)O)c2ccc3c(c2)OCO3)cc1OC (stereo not drawn) | inconclusive: 5.62 µM [inhibitor, full curve, poor fit] | 
31 | O=C(NCc1ccco1)c1cc(S(=O)(=O)NC2CC2)ccc1Br | inconclusive: 126 µM [inhibitor, single point] | 
32 | CCOC(=O)c1cnc2c(C)c(C)ccc2c1Nc1ccc(S(=O)(=O)Nc2ncccn2)cc1 |  | inactive: -16%
33 | CN(CC1CCCN(CCc2ccc(F)cc2)C1)C(=O)CCC(F)(F)F (stereo not drawn) | inconclusive: 39.8 µM [inhibitor, partial curve, poor fit] | 
34 | Cc1ccc(S(=O)(=O)Nc2ccc3ccccc3c2[N+](=O)[O-])cc1 | inconclusive: 79.4 µM [inhibitor, partial curve, poor fit] | 
35 | COc1ccc(NC(=O)C[C@H]2C(=O)N(CCc3ccccc3)C[C@@H]2C)cc1 | inconclusive: 35.5 µM [inhibitor, single point] | 
36 | Cc1ccc(C(C)C)c(OCc2n[nH]c(=S)n2Cc2ccc(Cl)cc2)c1 | active: 28.2 µM | 
37 | O=C(Cn1c(SCCOc2ccccc2)nc2ccccc21)N1CCOCC1 |  | inactive: 0%
38 | Cc1ccccc1NC(=S)NNc1ncc(C(F)(F)F)cc1Cl | inconclusive: 50.1 µM [inhibitor, partial curve, poor fit] | 
39 | CCn1cc(C(=O)N2CCN(c3ccc([N+](=O)[O-])cc3)CC2)c(=O)c2ccc(C)nc21 | inconclusive: 100 µM [inhibitor, single point] | 
40 | Cc1ccc(S(=O)(=O)N2[C@@H](c3ccccc3)C(C(=O)O)=CC[C@H]2c2ccc(C(C)C)cc2)cc1 | inconclusive: 50.1 µM [inhibitor, partial curve, poor fit] | 
41 | CCN(CC)CCn1c(C)nc2ccccc21 | inconclusive: 35.5 µM [inhibitor, partial curve, poor fit] | 
42 | Cc1ccc2oc(C(=O)N(Cc3ccncc3)CC3CCCO3)c(C)c2c1 (stereo not drawn) |  | inactive: 6.19%

Row | Structure (SMILES) | Potency | activity change, negative = inhibition
43 | Cc1ccc(NC(=S)Nc2ccc(F)cc2)cc1 | inconclusive: 44.7 µM [inhibitor, partial curve, poor fit] | 
44 | Cc1nnc(SCC(=O)c2cc(C)n(-c3ccc4c(c3)OCO4)c2C)s1 | inconclusive: 44.7 µM [inhibitor, partial curve, poor fit] | 
45 | CN1CCN(S(=O)(=O)c2ccc(N3CCN(c4ccc(O)cc4)CC3)c([N+](=O)[O-])c2)CC1 | inconclusive: 44.7 µM [inhibitor, partial curve, poor fit] | 
46 | COc1ccc(-c2noc([C@@H]3CCCN3C(=O)c3ccc(Cl)cc3)n2)cc1 | inconclusive: 22.4 µM [inhibitor, full curve, poor fit] | 
47 | C=CCN=C1S/C(=C/c2cccc([N+](=O)[O-])c2)C(=O)N1CC=C | inconclusive: 56.2 µM [inhibitor, partial curve, poor fit] | 
48 | CCOc1ccc(NC(=O)CN(C)C(=O)c2cc(C)on2)cc1OCC | inconclusive: 141 µM [inhibitor, partial curve, poor fit] | 
49 | CCCCN1C(=O)C(=O)NC[C@@H]1C(C)CC (stereo partly drawn) | inconclusive: 112 µM [inhibitor, single point] | 
50 | CC(COc1cccc(Br)c1)CN1CCC(C(O)(c2ccccc2)c2ccccc2)CC1 (stereo not drawn) | inconclusive: 89.1 µM [inhibitor, single point] | 
51 | O=C(Nc1ccc2nc(SCC(=O)N3CCOCC3)sc2c1)c1cccc(Cl)c1 |  | inactive: -32.2%
52 | CCC(C)C(=O)Nc1cc([N+](=O)[O-])ccc1Cl (stereo not drawn) | inconclusive: 89.1 µM [inhibitor, partial curve, poor fit] | 
53 | CC1(Cc2ccc3c(c2)OCO3)C(=O)Nc2ccc(-c3cccc(C(F)(F)F)c3)cc21 (stereo not drawn) |  | inactive: -25%
54 | CC(C)Nc1sc(C(=O)c2ccccc2)c(N)c1C#N |  | inactive: -11.7%
55 | O=C(Nc1cc(C(F)(F)F)ccc1C(=O)O)c1ccccc1Cl | inconclusive: 44.7 µM [inhibitor, partial curve, poor fit] | 
56 | CN(C)CCN(C(=O)c1ccc(S(=O)(=O)N(C)c2ccccc2)cc1)c1nc2cc3c(cc2s1)OCCO3 |  | inactive: 0.0582%
57 | COc1ccccc1Oc1nc2ccccn2c(=O)c1/C=C(\C#N)C(=O)Nc1c(C)n(C)n(-c2ccccc2)c1=O |  | inactive: -6.96%
58 | Cc1c(C(=O)O)cccc1-n1c(C)cc(/C=N/Nc2ccc([N+](=O)[O-])cn2)c1C | inconclusive: 44.7 µM [inhibitor, partial curve, poor fit] | 
59 | CCc1nnc(SCC(=O)Nc2ccccc2Cl)nc1CC | inactive and inconclusive: 4.47 µM [inhibitor, full curve, poor fit] | 
60 | CNCCCOc1cccc(OC(C)C)c1 | inconclusive: 0.562 µM [inhibitor, full curve, poor fit] | 
61 | CCOc1ccc(NC(=O)COc2ccc(CC)cc2)c2cccnc12 |  | inactive: -25.1%
62 | COc1ccc(OC)c(NC(=O)c2c(C)oc3ccn(Cc4cccc(F)c4)c(=O)c23)c1 | inconclusive: 50.1 µM [inhibitor, partial curve] | 
63 | COc1ccc(-c2nc(C#N)c(NCc3ccccc3Cl)o2)cc1 | inconclusive: 100 µM [inhibitor, single point] | 

Source: PubChem BioAssay AID1671190 (National Center for Advancing Translational Sciences (NCATS), 2021)
